# Measurements as given in PMC6321638.
# Sequences of proteins named here, by UniProt entry; tags and fusion partners are left off.
# UniProt P12815: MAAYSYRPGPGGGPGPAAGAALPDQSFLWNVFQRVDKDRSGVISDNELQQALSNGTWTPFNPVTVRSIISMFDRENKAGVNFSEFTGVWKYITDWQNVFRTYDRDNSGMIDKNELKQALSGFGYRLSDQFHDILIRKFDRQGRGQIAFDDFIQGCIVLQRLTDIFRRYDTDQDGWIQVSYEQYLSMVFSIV
# These are yes or no findings as the source states them, for the method shown. Tags and fused reporters may be left off the sequences shown.
# Biological target: T1, His-SOUL^WT (wild-type SOUL fused to His-tag) (mouse) (UniProt Q9WU63)
# T1 sequence: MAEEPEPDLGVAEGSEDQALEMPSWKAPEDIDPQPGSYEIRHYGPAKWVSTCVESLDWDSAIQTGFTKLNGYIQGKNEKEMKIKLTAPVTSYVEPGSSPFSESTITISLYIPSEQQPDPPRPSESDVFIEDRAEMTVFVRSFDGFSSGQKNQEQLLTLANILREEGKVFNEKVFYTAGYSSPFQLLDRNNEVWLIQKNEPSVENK
# Experiment: pull-down; His-tag pulldown as a3 but with EGTA instead of Ca2+; both purified
substance,measurement,value
GST-ALG-2^WT (wild-type ALG-2 fused to GST-tag) (from UniProt P12815 1-191),binding,no binding (condition: with EGTA)
